Measured values published in paper PMC6092624.
Results are given in words; binding and its absence hold for the method and conditions named. For part of these data: In cells and extracts the contact can be indirect. Some binding calls cover weakened binding; strength is not graded here. For part of these data: Sequences can lack the tags named with a protein.

Sequences of proteins named here, by UniProt entry; tags and fusion partners are left off. A change or cut given only in a name is not applied to a line headed by its entry.
UniProt Q08460: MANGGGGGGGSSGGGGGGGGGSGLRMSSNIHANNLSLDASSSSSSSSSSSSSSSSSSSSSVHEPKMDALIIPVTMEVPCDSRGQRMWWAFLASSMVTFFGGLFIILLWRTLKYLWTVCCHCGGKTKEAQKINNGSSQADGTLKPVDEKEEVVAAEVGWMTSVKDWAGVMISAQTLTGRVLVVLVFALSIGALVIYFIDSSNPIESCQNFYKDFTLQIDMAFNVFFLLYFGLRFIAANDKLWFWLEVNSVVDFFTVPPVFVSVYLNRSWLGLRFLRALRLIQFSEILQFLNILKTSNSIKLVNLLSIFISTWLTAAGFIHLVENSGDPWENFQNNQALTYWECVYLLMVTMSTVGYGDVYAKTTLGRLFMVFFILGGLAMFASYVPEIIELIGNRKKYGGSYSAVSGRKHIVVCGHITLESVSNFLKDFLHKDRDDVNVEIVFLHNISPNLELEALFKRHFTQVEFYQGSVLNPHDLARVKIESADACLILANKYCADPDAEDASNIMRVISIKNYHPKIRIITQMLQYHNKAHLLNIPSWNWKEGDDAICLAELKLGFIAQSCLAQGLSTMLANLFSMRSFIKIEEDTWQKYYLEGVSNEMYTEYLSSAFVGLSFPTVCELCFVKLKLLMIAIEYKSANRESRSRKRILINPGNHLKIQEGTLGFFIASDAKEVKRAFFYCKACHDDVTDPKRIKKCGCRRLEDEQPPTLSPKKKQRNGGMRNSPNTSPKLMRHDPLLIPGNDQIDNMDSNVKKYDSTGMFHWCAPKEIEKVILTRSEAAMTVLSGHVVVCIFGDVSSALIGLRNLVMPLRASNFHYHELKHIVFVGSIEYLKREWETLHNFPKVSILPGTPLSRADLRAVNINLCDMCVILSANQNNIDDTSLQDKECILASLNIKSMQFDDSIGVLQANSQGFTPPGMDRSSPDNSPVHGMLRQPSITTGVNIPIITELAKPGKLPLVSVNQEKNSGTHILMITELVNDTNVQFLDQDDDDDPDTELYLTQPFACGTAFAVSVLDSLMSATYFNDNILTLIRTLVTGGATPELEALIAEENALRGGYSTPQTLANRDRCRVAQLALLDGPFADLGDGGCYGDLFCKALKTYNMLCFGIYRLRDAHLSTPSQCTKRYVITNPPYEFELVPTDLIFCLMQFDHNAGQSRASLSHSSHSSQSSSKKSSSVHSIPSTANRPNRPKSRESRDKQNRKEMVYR
UniProt Q9JIR4: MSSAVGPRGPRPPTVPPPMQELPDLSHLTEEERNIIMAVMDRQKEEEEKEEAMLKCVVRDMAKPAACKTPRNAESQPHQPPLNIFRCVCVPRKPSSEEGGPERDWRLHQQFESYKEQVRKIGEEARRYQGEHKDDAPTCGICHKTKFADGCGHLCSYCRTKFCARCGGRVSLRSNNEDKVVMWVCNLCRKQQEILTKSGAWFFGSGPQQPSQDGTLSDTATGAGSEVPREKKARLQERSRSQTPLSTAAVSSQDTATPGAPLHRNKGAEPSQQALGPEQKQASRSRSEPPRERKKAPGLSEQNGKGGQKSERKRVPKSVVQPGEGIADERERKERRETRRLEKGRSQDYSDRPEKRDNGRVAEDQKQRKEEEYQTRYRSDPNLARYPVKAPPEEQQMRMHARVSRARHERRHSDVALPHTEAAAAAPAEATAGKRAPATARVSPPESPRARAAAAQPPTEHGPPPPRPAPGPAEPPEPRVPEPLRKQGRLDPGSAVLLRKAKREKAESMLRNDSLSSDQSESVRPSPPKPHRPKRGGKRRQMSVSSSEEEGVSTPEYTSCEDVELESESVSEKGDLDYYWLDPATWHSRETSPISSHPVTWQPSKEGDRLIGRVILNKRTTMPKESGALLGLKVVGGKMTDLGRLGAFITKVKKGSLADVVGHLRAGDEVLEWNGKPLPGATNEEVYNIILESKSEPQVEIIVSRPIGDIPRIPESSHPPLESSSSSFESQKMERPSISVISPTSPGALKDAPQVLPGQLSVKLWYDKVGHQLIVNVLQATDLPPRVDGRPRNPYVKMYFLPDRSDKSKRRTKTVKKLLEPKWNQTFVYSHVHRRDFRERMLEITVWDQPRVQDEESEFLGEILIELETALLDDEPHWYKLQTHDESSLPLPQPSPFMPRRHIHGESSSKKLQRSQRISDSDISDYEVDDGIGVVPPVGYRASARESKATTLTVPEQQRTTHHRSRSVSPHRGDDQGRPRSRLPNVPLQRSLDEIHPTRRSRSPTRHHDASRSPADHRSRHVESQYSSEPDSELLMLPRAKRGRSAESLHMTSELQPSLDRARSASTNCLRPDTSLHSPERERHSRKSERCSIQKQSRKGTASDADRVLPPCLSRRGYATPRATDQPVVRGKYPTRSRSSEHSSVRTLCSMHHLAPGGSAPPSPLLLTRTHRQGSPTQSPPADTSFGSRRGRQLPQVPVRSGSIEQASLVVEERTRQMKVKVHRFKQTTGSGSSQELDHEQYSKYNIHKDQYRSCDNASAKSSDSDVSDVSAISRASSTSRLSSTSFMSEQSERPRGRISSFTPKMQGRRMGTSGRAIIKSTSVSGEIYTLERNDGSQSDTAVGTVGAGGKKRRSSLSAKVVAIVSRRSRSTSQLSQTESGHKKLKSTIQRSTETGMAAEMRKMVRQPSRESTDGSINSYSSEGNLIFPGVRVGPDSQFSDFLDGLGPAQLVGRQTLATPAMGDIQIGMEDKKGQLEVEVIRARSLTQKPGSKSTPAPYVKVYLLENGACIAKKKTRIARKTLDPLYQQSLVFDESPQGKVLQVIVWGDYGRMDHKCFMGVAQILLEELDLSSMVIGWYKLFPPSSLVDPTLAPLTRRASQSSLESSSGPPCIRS
UniProt Q62976: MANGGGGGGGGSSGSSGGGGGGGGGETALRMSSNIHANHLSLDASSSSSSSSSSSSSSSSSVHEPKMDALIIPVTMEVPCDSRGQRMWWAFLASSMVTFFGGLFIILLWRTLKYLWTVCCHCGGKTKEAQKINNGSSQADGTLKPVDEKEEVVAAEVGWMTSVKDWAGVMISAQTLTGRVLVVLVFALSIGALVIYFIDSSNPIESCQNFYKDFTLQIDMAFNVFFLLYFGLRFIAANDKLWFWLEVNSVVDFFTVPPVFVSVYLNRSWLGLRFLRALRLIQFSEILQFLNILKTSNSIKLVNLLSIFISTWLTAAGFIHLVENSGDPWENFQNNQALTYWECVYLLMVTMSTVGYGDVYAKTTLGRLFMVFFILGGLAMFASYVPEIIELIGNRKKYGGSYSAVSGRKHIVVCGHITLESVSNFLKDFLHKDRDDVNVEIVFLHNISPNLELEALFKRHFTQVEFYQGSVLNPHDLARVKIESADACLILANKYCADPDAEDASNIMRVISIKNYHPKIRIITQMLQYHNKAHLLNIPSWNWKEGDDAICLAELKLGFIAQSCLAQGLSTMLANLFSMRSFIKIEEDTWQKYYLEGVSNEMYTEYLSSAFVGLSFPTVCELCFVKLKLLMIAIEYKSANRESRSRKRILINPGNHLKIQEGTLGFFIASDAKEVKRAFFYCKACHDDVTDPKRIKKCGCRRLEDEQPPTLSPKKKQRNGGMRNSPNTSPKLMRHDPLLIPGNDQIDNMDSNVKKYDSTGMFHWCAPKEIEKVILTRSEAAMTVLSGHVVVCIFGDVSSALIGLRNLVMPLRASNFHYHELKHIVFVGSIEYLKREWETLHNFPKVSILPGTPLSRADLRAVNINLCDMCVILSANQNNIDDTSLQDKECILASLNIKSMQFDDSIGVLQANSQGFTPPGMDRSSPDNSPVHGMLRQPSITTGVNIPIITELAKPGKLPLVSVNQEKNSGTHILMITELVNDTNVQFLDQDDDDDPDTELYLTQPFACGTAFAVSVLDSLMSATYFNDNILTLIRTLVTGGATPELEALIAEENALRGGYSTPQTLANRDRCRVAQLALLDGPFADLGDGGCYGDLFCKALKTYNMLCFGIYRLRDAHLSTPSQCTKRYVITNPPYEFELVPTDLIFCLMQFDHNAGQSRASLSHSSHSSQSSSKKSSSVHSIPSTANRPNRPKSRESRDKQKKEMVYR

Columns and labels:
[1] = target: T1, endogenous RBP2 of mouse brain (mouse (endogenous in brain)) (UniProt Q80U40); assay: co-IP; endogenous proteins of mouse brain homogenates solubilized with Triton X-100 (1%), NP-40 (1%) or SDS (0.3%); immunoprecipitation with antibodies to RBP2 or RIMs; preimmune serum as control
T1 sequence: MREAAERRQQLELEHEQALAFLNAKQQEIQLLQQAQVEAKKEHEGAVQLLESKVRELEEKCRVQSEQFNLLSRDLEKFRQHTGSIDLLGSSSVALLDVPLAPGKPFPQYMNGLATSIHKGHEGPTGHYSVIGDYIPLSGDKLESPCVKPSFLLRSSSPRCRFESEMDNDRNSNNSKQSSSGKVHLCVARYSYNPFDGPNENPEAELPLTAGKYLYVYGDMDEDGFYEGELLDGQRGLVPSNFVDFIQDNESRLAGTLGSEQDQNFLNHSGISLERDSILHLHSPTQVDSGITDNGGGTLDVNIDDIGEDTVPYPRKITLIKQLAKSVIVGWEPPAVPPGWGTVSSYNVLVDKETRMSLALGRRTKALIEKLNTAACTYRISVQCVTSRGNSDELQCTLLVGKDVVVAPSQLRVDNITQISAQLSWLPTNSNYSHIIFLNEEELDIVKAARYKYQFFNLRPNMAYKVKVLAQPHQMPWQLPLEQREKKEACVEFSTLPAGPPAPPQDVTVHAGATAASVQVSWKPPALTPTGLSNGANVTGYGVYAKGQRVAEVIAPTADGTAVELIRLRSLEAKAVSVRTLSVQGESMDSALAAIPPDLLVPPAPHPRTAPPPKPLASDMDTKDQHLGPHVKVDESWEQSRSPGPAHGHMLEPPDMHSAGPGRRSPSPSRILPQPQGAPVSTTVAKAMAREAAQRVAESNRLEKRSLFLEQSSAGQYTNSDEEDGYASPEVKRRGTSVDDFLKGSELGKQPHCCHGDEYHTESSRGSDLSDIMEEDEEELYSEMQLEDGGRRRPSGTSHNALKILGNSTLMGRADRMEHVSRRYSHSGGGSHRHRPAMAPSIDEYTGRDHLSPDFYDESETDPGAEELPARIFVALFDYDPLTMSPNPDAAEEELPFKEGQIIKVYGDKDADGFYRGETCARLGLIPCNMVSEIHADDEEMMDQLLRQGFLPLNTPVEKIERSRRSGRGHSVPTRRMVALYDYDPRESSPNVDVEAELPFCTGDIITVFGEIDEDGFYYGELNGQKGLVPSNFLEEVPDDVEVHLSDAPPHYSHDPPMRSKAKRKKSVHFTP

[2] = target: T2, myc-tagged full-length RBP2 (RIM-binding protein 2), residues 1–1,068 (rat) (UniProt Q9JIR1); assay: co-IP; lysates of co-transfected HEK293T cells; immunoprecipitation with antibodies to GFP (YFP), RBP2 or myc; immunoblot for myc and GFP
T2 sequence: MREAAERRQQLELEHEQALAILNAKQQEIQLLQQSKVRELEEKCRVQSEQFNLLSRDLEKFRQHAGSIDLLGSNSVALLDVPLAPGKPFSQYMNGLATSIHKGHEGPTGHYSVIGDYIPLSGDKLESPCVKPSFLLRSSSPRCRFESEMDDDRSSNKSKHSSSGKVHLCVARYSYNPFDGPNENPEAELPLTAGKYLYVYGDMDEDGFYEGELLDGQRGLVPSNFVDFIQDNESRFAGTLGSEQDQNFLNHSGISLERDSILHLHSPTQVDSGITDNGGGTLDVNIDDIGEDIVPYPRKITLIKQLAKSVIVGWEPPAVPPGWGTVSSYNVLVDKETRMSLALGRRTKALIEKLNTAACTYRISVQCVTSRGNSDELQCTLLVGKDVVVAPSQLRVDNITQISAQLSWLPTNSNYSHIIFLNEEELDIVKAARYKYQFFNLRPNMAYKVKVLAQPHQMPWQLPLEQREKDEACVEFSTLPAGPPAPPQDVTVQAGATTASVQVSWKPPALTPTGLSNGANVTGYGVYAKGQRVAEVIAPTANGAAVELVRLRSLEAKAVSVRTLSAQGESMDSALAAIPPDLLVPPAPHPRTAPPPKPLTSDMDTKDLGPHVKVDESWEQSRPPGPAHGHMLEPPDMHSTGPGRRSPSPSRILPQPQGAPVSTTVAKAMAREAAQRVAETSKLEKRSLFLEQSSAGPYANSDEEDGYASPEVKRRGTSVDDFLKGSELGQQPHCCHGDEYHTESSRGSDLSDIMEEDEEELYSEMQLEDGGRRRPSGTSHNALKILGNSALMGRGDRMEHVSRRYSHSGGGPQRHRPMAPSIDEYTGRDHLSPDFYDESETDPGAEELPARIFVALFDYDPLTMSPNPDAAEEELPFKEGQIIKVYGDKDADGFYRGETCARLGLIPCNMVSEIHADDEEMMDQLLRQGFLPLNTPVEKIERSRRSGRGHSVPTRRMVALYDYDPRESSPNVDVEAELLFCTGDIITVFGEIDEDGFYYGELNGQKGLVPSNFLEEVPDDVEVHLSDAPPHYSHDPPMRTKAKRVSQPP

[3] = target: T2, myc-tagged full-length RBP2 (RIM-binding protein 2), residues 1–1,068 (rat); assay: co-IP; transfected HEK293T cells co-expressing full-length RBP2 with Cav2.2 and BKα-channels
[4] = target: T3, recombinant GST-fused fragment of RBP1 (aa 771–1,086) containing only the FN3 domains (UniProt Q9JIR0); assay: pull-down; recombinant GST-fused FN3 fragments of RBP1 or RBP2 as bait; YFP-BKα (aa 761–1,178) from HEK293T cell lysates; only the target purified
T3 sequence: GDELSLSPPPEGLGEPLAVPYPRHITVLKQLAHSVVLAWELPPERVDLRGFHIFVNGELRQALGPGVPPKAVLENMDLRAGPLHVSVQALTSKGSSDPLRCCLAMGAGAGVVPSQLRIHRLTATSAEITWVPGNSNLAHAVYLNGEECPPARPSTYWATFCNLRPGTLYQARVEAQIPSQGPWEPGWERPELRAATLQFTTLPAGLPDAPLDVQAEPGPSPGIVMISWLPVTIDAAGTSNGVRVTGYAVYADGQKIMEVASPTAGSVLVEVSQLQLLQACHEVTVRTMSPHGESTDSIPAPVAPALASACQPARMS

[5] = target: T2, myc-tagged full-length RBP2 (RIM-binding protein 2), residues 1–1,068 (rat); assay: imaging of RBP2-dependent translocation to the plasma membrane in co-transfected cells; HEK293T cells co-transfected, analysed 24 h later; line scans and Pearson correlation of the YFP signal with nuclear DAPI

Substance | binding [2] | binding [3] | binding [5] | further results
endogenous BKα of mouse brain (from UniProt Q08460 1-1209) | – | – | – | binding [1]: binds
YFP-tagged full-length RIM1α (from UniProt Q9JIR4 1-1615) | binds | – | – | –
Ca2+-channels (Cav2.2) expressed in HEK293T cells (from UniProt Q02294 1-2336) | – | binds | – | –
YFP-tagged RCK2-domain of BKα (residues 761–1,178; from prey clone 38) (from UniProt Q62976 761-1178) (domain or fragment) | binds | – | binds | binding [4]: binds
BKα-channels expressed in HEK293T cells (from UniProt Q62976 1-1209) | – | binds | – | –
YFP-tagged RCK1-domain of BKα (residues 391–692) (from UniProt Q62976 391-692) (domain or fragment) | binds | – | binds | –
